Source: US7381728B2, “Piperazine derivatives useful for the treatment of gastrointestinal disorders” (Glaxo Group Limited, priority 2004, dated 2008)
Some entries share one result that the patent states for a list of compounds.

By UniProt entry, the sequences of proteins in these tests, tags left out.
UniProt Q92847, whole entry: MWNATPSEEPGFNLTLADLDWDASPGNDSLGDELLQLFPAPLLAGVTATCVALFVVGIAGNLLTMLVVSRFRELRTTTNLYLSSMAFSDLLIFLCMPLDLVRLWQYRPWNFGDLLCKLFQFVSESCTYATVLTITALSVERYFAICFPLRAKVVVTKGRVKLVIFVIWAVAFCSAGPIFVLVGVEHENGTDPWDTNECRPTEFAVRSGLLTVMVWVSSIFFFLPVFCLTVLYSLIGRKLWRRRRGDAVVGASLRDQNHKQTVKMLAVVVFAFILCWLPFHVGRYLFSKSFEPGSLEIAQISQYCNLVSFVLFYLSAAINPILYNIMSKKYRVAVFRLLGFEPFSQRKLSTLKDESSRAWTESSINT

Legend:
Ghrelin Receptor GHS-R [1] = target: T1, Ghrelin Receptor GHS-R (Homo sapiens, UniProt Q92847); assay: GHSR Agonist BACMAM FLIPR Assay; assay type: cell-based; parameters: The open reading frame of GHS-R was transferred from pCDN into pFastBacmam vector; expressed in transfected cells; host or cells: HEK MSR II cells or U2OS cells transduced with human GHSR BacMam virus; settings: HEK MSR II or U2OS cells transduced with human GHSR BACMAM virus; Fluo 4 calcium fluorescence
Ghrelin Receptor GHS-R [2] = target: T1, Ghrelin Receptor GHS-R; assay: GHS-R GTPγS functional agonist assay; assay type: biochemical; parameters: The open reading frame of GHS-R was transferred from pCDN into pFastBacmam vector; expressed in transfected cells; host or cells: Membranes of HEK293T cells (Lipofectamine, pCDNA3) or of HEK293F cells (BacMam co-transduction with rat Gαo); settings: membranes of HEK293 cells transiently expressing GHS-R (protocols I and II); [35S]GTPγS SPA; read-out: activity in the GHS-R GTPγS functional agonist assays

| SMILES | EC50 (Ghrelin Receptor GHS-R [1]) [µM] | EC50 (Ghrelin Receptor GHS-R [2]) [µM] |
| --- | --- | --- |
| COc1ccc(N2C[C@@H](C)N[C@@H](C)C2)cc1NS(=O)(=O)c1cccc(-c2cccs2)c1 [Example 131, N-[5-(cis-3,5-Dimethyl-1-piperazinyl)-2-(methyloxy)phenyl]-3-(2-thienyl)benzenesulfonamide] | < 1 | < 1 |
| COc1ccc(N2C[C@@H](C)N[C@@H](C)C2)cc1NS(=O)(=O)c1ccc(-c2cccc(C)n2)s1 [Example 127, N-[5-(cis-3,5-Dimethyl-1-piperazinyl)-2-(methyloxy)phenyl]-5-(6-methyl-2-pyridinyl)-2-thiophenesulfonamide] | < 1 | < 1 |
| CCOc1ccc(N2C[C@@H](C)N[C@@H](C)C2)cc1NS(=O)(=O)c1ccc(I)cc1 [Example 99, N-[5-(cis-3,5-Dimethyl-1-piperazinyl)-2-(ethyloxy)phenyl]-4-iodobenzenesulfonamide] | < 1 | < 1 |
| C[C@@H]1CN(c2cccc(NS(=O)(=O)c3ccc(-c4ccc(Cl)s4)cc3)c2)C[C@H](C)N1 [Example 45, 4-(5-Chloro-2-thienyl)-N-[3-(cis-3,5-dimethyl-1-piperazinyl)phenyl]benzenesulfonamide] | < 1 | < 1 |
| C[C@@H]1CN(c2ccc(O)c(NS(=O)(=O)c3ccc(-c4ccccn4)s3)c2)C[C@H](C)N1 [Example 120, N-[5-(cis-3,5-Dimethyl-1-piperazinyl)-2-hydroxyphenyl]-5-(2-pyridinyl)-2-thiophenesulfonamide] | < 1 | < 1 |
| COc1ccc(N2C[C@@H](C)N[C@@H](C)C2)cc1NS(=O)(=O)c1ccc(-c2ccoc2)c(C)c1 [Example 184, N-[5-(cis-3,5-Dimethyl-1-piperazinyl)-2-(methyloxy)phenyl]-4-(3-furanyl)-3-methylbenzenesulfonamide] | < 1 | < 1 |
| COc1ccc(N2C[C@@H](C)N[C@@H](C)C2)cc1NS(=O)(=O)c1ccc(-c2csc(C)c2)cc1F [Example 302, N-[5-(cis-3,5-Dimethyl-1-piperazinyl)-2-(methyloxy)phenyl]-2-fluoro-4-(5-methyl-3-thienyl)benzenesulfonamide] | < 1 | < 1 |
| COc1ccc(N2C[C@@H](C)N[C@@H](C)C2)cc1NS(=O)(=O)c1sc2ccc(Cl)cc2c1C [Example 16, 5-Chloro-N-[5-(cis-3,5-dimethyl-1-piperazinyl)-2-(methyloxy)phenyl]-3-methyl-1-benzothiophene-2-sulfonamide] | < 1 | < 1 |
| COc1ccc(N2C[C@@H](C)N[C@@H](C)C2)cc1NS(=O)(=O)c1ccc(-c2ncccn2)cc1 [Example 271, N-[5-(cis-3,5-Dimethyl-1-piperazinyl)-2-(methyloxy)phenyl]-4-(2-pyrimidinyl)benzenesulfonamide] | < 1 | < 1 |
| COc1ccc(N2C[C@@H](C)N[C@@H](C)C2)cc1NS(=O)(=O)c1ccc(-c2ccccc2F)s1 [Example 124, N-[5-(cis-3,5-Dimethyl-1-piperazinyl)-2-(methyloxy)phenyl]-5-(2-fluorophenyl)-2-thiophenesulfonamide] | < 1 | < 1 |
| COc1ccc(N2C[C@@H](C)N[C@@H](C)C2)cc1NS(=O)(=O)c1ccc(Br)cc1Br [Example 258, 2,4-Dibromo-N-[5-(cis-3,5-dimethyl-1-piperazinyl)-2-(methyloxy)phenyl]benzenesulfonamide] | < 1 | < 1 |
| CCOc1ccccc1-c1ccc(S(=O)(=O)Nc2cc(N3C[C@@H](C)N[C@@H](C)C3)ccc2OC)cc1 [Example 139, N-[5-(cis-3,5-Dimethyl-1-piperazinyl)-2-(methyloxy)phenyl]-2′-(ethyloxy)-4-biphenylsulfonamide] | < 1 | < 1 |
| Cc1ccc(-c2ccc(S(=O)(=O)Nc3cc(N4C[C@@H](C)N[C@@H](C)C4)ccc3O)cc2)o1 [Example 313, N-[5-(cis-3,5-dimethyl-1-piperazinyl)-2-hydroxyphenyl]-4-(5-methyl-2-furanyl)benzenesulfonamide] | < 1 | < 1 |
| COc1ccc(NS(=O)(=O)c2sc3ccc(Cl)cc3c2C)cc1N1C[C@@H](C)N[C@@H](C)C1 [Example 3, 5-Chloro-N-[3-(cis-3,5-dimethyl-1-piperazinyl)-4-(methyloxy)phenyl]-3-methyl-1-benzothiophene-2-sulfonamide] | < 1 | < 1 |
| C[C@@H]1CN(c2ccc(C#N)c(NS(=O)(=O)c3ccc(-c4cccs4)cc3)c2)C[C@H](C)N1 [Example 97, N-[2-Cyano-5-(cis-3,5-dimethyl-1-piperazinyl)phenyl]-4-(2-thienyl)benzenesulfonamide] | < 1 | < 1 |
| COc1ccc(NS(=O)(=O)c2ccc(-c3ccccc3C)s2)cc1N1C[C@@H](C)N[C@@H](C)C1 [Example 217, N-[3-(cis-3,5-Dimethyl-1-piperazinyl)-4-(methyloxy)phenyl]-5-(2-methylphenyl)-2-thiophenesulfonamide] | < 1 | < 1 |
| COc1ccc(NS(=O)(=O)c2ccc(Oc3cccc(Cl)c3C#N)cc2)cc1N1C[C@@H](C)N[C@@H](C)C1 [Example 2, 4-[(3-Chloro-2-cyanophenyl)oxy]-N-[3-(cis-3,5-dimethyl-1-piperazinyl)-4-(methyloxy)phenyl]benzenesulfonamide] | < 1 | < 1 |

Results, then the compound that gave them:

| EC50 (Ghrelin Receptor GHS-R [1]) [µM] | EC50 (Ghrelin Receptor GHS-R [2]) [µM] | SMILES |
| --- | --- | --- |
| < 1 | < 1 | COc1ccc(N2C[C@@H](C)N[C@@H](C)C2)cc1NS(=O)(=O)c1ccc(Br)c(C)c1 [Example 73, 4-Bromo-N-[5-(cis-3,5-dimethyl-1-piperazinyl)-2-(methyloxy)phenyl]-3-methylbenzenesulfonamide] |
| < 1 | < 1 | COc1ccc(N2C[C@@H](C)N[C@@H](C)C2)cc1NS(=O)(=O)c1ccc2c(Cl)cccc2c1 [Example 125, 5-Chloro-N-[5-(cis-3,5-dimethyl-1-piperazinyl)-2-(methyloxy)phenyl]-2-naphthalenesulfonamide] |
| < 1 | < 1 | COc1ccc(N2C[C@@H](C)N[C@@H](C)C2)cc1NS(=O)(=O)c1ccc(-c2cc(Cl)ccc2OC)cc1 [Example 189, 5′-Chloro-N-[5-(cis-3,5-dimethyl-1-piperazinyl)-2-(methyloxy)phenyl]-2′-(methyloxy)-4-biphenylsulfonamide] |
| < 1 | < 1 | CCOc1ccccc1-c1ccc(S(=O)(=O)Nc2cc(N3C[C@@H](C)N[C@@H](C)C3)ccc2OC)s1 [Example 199, N-[5-(cis-3,5-Dimethyl-1-piperazinyl)-2-(methyloxy)phenyl]-5-[2-(ethyloxy)phenyl]-2-thiophenesulfonamide] |
| < 1 | < 1 | COc1ccc(N2C[C@@H](C)N[C@@H](C)C2)cc1NS(=O)(=O)c1ccc(-c2cccnc2)s1 [Example 294, N-[5-(cis-3,5-Dimethyl-1-piperazinyl)-2-(methyloxy)phenyl]-5-(3-pyridinyl)-2-thiophenesulfonamide] |
| < 1 | < 1 | COc1ccc(N2C[C@@H](C)N[C@@H](C)C2)cc1NS(=O)(=O)c1ccc(-c2cc(C)cs2)cc1 [Example 107, N-[5-(cis-3,5-Dimethyl-1-piperazinyl)-2-(methyloxy)phenyl]-4-(4-methyl-2-thienyl)benzenesulfonamide] |
| < 1 | < 1 | COc1cc(-c2cc(C)cs2)ccc1S(=O)(=O)Nc1cc(N2C[C@@H](C)N[C@@H](C)C2)ccc1F [Example 264, N-[5-(cis-3,5-Dimethyl-1-piperazinyl)-2-fluorophenyl]-2-(methyloxy)-4-(4-methyl-2-thienyl)benzenesulfonamide] |
| < 1 | < 1 | COCc1cccc(-c2ccc(S(=O)(=O)Nc3ccc(OC)c(N4C[C@@H](C)N[C@@H](C)C4)c3)s2)c1 [Example 215, N-[3-(cis-3,5-Dimethyl-1-piperazinyl)-4-(methyloxy)phenyl]-5-{3-[(methyloxy)methyl]phenyl}-2-thiophenesulfonamide] |
| < 1 | < 1 | COc1cc(F)c(N2C[C@@H](C)N[C@@H](C)C2)cc1NS(=O)(=O)c1ccc(-c2ccccn2)s1 [Example 54, N-[5-(cis-3,5-Dimethyl-1-piperazinyl)-4-fluoro-2-(methyloxy)phenyl]-5-(2-pyridinyl)-2-thiophenesulfonamide] |
| < 1 | < 1 | COc1ccc(N2C[C@@H](C)N[C@@H](C)C2)cc1NS(=O)(=O)c1ccc(-c2ccc(C)s2)cc1 [Example 159, N-[5-(cis-3,5-Dimethyl-1-piperazinyl)-2-(methyloxy)phenyl]-4-(5-methyl-2-thienyl)benzenesulfonamide] |
| < 1 | < 1 | COc1ccc(N2C[C@@H](C)N[C@@H](C)C2)cc1NS(=O)(=O)c1ccc(-c2ccc(C)s2)cc1C [Example 290, N-[5-(cis-3,5-Dimethyl-1-piperazinyl)-2-(methyloxy)phenyl]-2-methyl-4-(5-methyl-2-thienyl)benzenesulfonamide] |
| < 1 | < 1 | COc1ccc(N2C[C@@H](C)N[C@@H](C)C2)cc1NS(=O)(=O)c1ccc2c(c1)OCCN2C [Example 250, N-[5-(cis-3,5-Dimethyl-1-piperazinyl)-2-(methyloxy)phenyl]-4-methyl-3,4-dihydro-2H-1,4-benzoxazine-7-sulfonamide] |
